# Experimental data: PubChem BioAssay AID504444 (National Center for Advancing Translational Sciences (NCATS), 2011)
# In all, about 360,000 compounds went through this assay and about 7,500 (2.1%) were called active. Inconclusive results, whose numbers are uncertain, are shown with a selection of clear calls. Calls follow the shape of the dose curve; as a rule, active = well fitted inhibition curve with a large enough effect; inconclusive = small, poorly fitted or top-dose-only effect, or effect the other way; inactive = flat fitted curve, though single readings scatter. Where the call is inconclusive, the potency comes from a doubtful curve fit.
# Assay: Nrf2 qHTS screen for inhibitors; also: nearly all actives have a fitted effect of over 60% in size
# Settings: A549 ARE-Fluc reporter, luciferase luminescence, 18-24 h; activity change, negative = inhibition: at 46 µM (top of the series)
# Summary of the method: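 Nrf2 function is reported as luminescence of an ARE-controlled luciferase in A549 cells. Compounds were tested at several concentrations, and a CellTiter-Fluor read on the same wells flagged cytotoxicity.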
# % is scaled to controls: 0 for no effect and ±100 for the full control effect; potency is read from the fitted curve at half-maximal effect.
SMILES,Potency,"activity change, negative = inhibition"
O=C(NCCCn1ccnc1)c1cccc(S(=O)(=O)NCc2ccccc2)c1,"inconclusive: 7.31 µM [falling, partial curve]",
O=C(CC1SC(=O)N(c2ccccc2)C1=O)Nc1ccc(Br)cc1 (stereo unspecified),"inconclusive: 16.4 µM [activator, single point]",
COc1ccc(NS(=O)(=O)c2ccc3c(c2)NC(=O)C(C)S3)cc1 (stereo unspecified),"inconclusive: 29.1 µM [falling, single point]",
Cc1ccc(NC2=C(N3CCOCC3)C(=O)c3ccccc3C2=O)cc1,"inconclusive: 3.66 µM [activator, full curve, poor fit]",
CC(C)(C)c1ccc(C(=O)NCCC(=O)Nc2cc(Cl)ccc2N2CCOCC2)cc1,"inconclusive: 18.4 µM [falling, single point]",
O=C(NCc1ccccc1Cl)c1ccc2c(c1)nnn2C1CCCC1,"inconclusive: 29.1 µM [activator, single point]",
O=C(CCC(=O)c1ccc(Oc2ccccc2)cc1)Nc1cccc(Cl)c1,"inconclusive: 23.1 µM [falling, partial curve, poor fit]",
O=C(O)C1CCN(C(=O)c2cccc3ccccc23)CC1,,inactive: 21.1%
O=c1cc(-c2ccc(O)cc2)oc2c(O)c(O)c(O)c(O)c12,"inconclusive: 29.1 µM [falling, single point]",
COc1cccc(NC(=O)C2CCN(S(=O)(=O)c3ccc4c(c3)CC(C)N4C(C)=O)CC2)c1 (stereo unspecified),"inconclusive: 16.4 µM [falling, single point]",
O=C(OCc1cccc(F)c1)c1ccc2c(c1)-c1ccccc1C2=O,"inconclusive: 29.1 µM [falling, single point]",
O=C(Nc1ccccn1)c1cc(-c2ccc(Cl)s2)nc2ccccc12,"inconclusive: 32.6 µM [falling, single point]",
CC(=O)c1c(C)[nH]c(C(=O)CN2CCN(S(=O)(=O)c3ccc(C(C)C)cc3)CC2)c1C,active: 14.6 µM,
CCOc1ccc(Nc2c(S(=O)(=O)c3ccc(C)cc3)cnc3cc(OC)c(OC)cc23)cc1,"inconclusive: 23.1 µM [falling, single point]",
CCN(N=O)[C@@H](Cc1ccccc1)CN(N=O)[C@@H](Cc1ccccc1)CN(C)N=O,"inconclusive: 29.1 µM [activator, single point]",
O=S(=O)(c1ccccc1)N1CCC(O)(CSc2ccc(F)cc2)CC1,active: 4.11 µM,
O=C(CCc1ccccc1)Nc1ccc(N2CCOCC2)cc1,"inconclusive: 32.6 µM [activator, single point]",
Cc1ccc(S(=O)(=O)NCc2ccncc2)c(C)c1C,active: 1.46 µM,
CC(C)(C)c1ccc(OCCCCCCN2CCNCC2)cc1,,inactive: 5.46%
Cc1ccn2c(NC3CCCCC3)c(-c3ccc(C)o3)nc2c1,,inactive: 0.514%
Nc1nc(-c2ccccc2)cn1N,"inconclusive: 29.1 µM [activator, single point]",
Cc1cccc(/C(N)=N/OC(=O)c2cccs2)c1,"inconclusive: 4.61 µM [activator, partial curve]",

SMILES,Potency,"activity change, negative = inhibition"
C/C(=N\NC(=O)c1cc(C)nc2ccccc12)c1cccc(Cl)c1,"inconclusive: 32.6 µM [falling, single point]",
CSCCOC(=O)COc1ccc(/C=N/NC(=O)c2nn(C)cc2Cl)cc1,,inactive: 13.2%
Cc1ccc(-c2csc(NC(=O)N3CCOCC3)n2)cc1,"inconclusive: 16.4 µM [falling, single point]",
CCOC(=O)c1c(NC(=O)CSc2nc3ccccc3s2)sc(C)c1C,"inconclusive: 16.4 µM [falling, single point]",
C/C(=N\NS(=O)(=O)c1ccc([N+](=O)[O-])cc1)c1cccs1,"inconclusive: 0.326 µM [falling, full curve, poor fit]",
Cc1cccc(C)c1NC(=O)CN(C)C(=O)c1cccc(S(=O)(=O)N2CCN(c3ccccc3)CC2)c1,,inactive: -25.5%
CCOC(=O)c1ccc2c(c1)C1C=CCC1C(C(=O)OCC)N2 (stereo unspecified),,inactive: 1.58%
Cc1ccc(C)c(NC(=O)C(OC(=O)c2cnc(C)cn2)c2ccccc2)c1 (stereo unspecified),,inactive: 6.66%
O=C(NCc1ccccn1)c1ccc(Cl)cc1Cl,"inconclusive: 25.9 µM [activator, single point]",
CCCCCCCn1c2c(c(=N)c3c1CCC3)CCCC2,active: 0.517 µM,
O=C(c1cc([N+](=O)[O-])ccc1N1CCN(S(=O)(=O)c2ccc(Cl)c(Cl)c2)CC1)N1CCOCC1,"inconclusive: 32.6 µM [falling, partial curve, poor fit]",
CCn1c(C)nc2cc(C(=O)NN=Cc3ccccc3OC(F)F)ccc21,"inconclusive: 2.31 µM [activator, partial curve, poor fit]",
O=C(O)c1ccc(CN2C(=O)c3cccc4c([N+](=O)[O-])ccc(c34)C2=O)cc1,"inconclusive: 8.2 µM [activator, partial curve, poor fit]",
Cn1cccc1C(=O)OCC(=O)NCc1ccc2c(c1)OCO2,"inconclusive: 3.26 µM [activator, full curve]",
Cc1ccc(C(=O)N2CCN(c3ccccc3)CC2)cc1NC(=O)c1ccco1,,inactive: 2.25%
CCc1ccc(NC(=O)CSc2nc(=O)n(CCCN3CCOCC3)c3c2CCCC3)cc1,,inactive: -3.84%
CCNCCC(CCC(C)C)c1ccc2c(c1)OCO2 (stereo unspecified),,inactive: 0.422%
C/C(NC(=O)c1cccs1)=C1\C(=O)C[C@@H]2[C@H]1C2(C)C,"inconclusive: 3.26 µM [activator, full curve, poor fit]",
COc1ccc(CC(=O)N2CCN(c3ccccc3OC)CC2)cc1OC,,inactive: -28.4%
C[C@@H](C(=O)NC1CCCCC1)N1C(=O)N2CCc3c([nH]c4ccccc34)[C@@]2(C)C1=O,"inconclusive: 29.1 µM [falling, single point]",
COc1ccc(C)cc1N(CC(=O)Nc1ccc2c(c1)OCCO2)S(C)(=O)=O,"inconclusive: 5.8 µM [activator, full curve, poor fit]",
Cc1ccc(Cl)cc1NC(=O)c1ccc(NC(=O)N2CCSc3ncccc32)cc1,"inconclusive: 29.1 µM [falling, single point]",

SMILES,Potency,"activity change, negative = inhibition"
Cc1ccc([N+](=O)[O-])cc1NC(=O)CN(C)CCOc1ccccc1,"inconclusive: 29.1 µM [falling, single point]",
CC(=O)c1c(C)[nH]c(C(=O)OCC(=O)Nc2ccccc2Cl)c1C,active: 5.8 µM,
COc1ccc(S(=O)(=O)N/N=C\c2ccc3c(c2)OCO3)cc1,"inconclusive: 6.51 µM [falling, single point]",
O=C(NCC(=O)N1CCN(S(=O)(=O)c2ccccc2)CC1)c1ccc2ccccc2c1,"inconclusive: 20.6 µM [falling, single point]",
COc1ccc(NS(=O)(=O)c2ccc(Cl)s2)cn1,,inactive: -9.17%
O=C(CSC1=NCCS1)NC(NC(=O)CSC1=NCCS1)c1ccccc1,"inconclusive: 0.58 µM [falling, full curve, poor fit]",
CN(C)c1ccc(C(=S)N2CCN(c3ccc([N+](=O)[O-])cc3)CC2)cc1,"inconclusive: 16.4 µM [falling, partial curve, poor fit]",
CC(=O)N1CCc2c(sc3c2c(=O)n(-c2cccc(Cl)c2C)c(=O)n3Cc2ccccc2C)C1,"inconclusive: 7.31 µM [falling, partial curve, poor fit]",
C/C(=N/NC(=O)c1cccs1)c1cccs1,"inconclusive: 4.61 µM [activator, full curve]",
C(=N\Nc1nc2ccccc2s1)/c1ccccn1,"inconclusive: 2.91 µM [activator, partial curve, poor fit]",
CC(C)CC(=O)N1CCN(Cc2ccc3ccccc3c2)CC1,"inconclusive: 16.4 µM [falling, partial curve, poor fit]",
CCCCc1ccc(NC2=NCC(=O)N2CCc2ccccc2)cc1,"inconclusive: 20.6 µM [falling, single point]",
Cc1ccc(CN(C)C(=O)c2cccc(S(=O)(=O)N3CCc4ccccc43)c2)cc1,,inactive: -3.29%
Cc1ccc(N2CCN(/N=C/c3cccnc3)CC2)cc1,"inconclusive: 0.461 µM [falling, full curve, poor fit]",
Cc1ccccc1C(=O)Nc1cccc(OCc2cc(=O)n3c4c(sc3n2)CCCC4)c1,,inactive: 21.6%
Cc1ccc(C)c(CNS(=O)(=O)c2ccc3c(c2)C(C)(C)C(=O)N3C)c1,"inconclusive: 20.6 µM [activator, partial curve, poor fit]",
COc1ccc2c(c1)c1c(c(=O)n(-c3ccc(C)cc3)c(=O)n1CC(=O)c1ccc(Cl)cc1)n2C,"inconclusive: 1.03 µM [activator, partial curve, poor fit]",
COc1cccc(CNS(=O)(=O)c2ccc3[nH]c4c(c3c2)CCCCC4)c1,"inconclusive: 32.6 µM [falling, single point]",
Cc1ccc(C)c(N2CCN(C(=O)c3ccc(-c4nc(COc5ccccc5)c(C)o4)cc3)CC2)c1,"inconclusive: 6.51 µM [falling, single point]",
CC(C)C[C@@H](CN1CCC[C@@H]1CN1C(=O)C(=O)NC[C@@H]1Cc1ccccc1)N1C[C@H](Cc2ccccc2)N(CC2CCCCCC2)C(=O)C1=O,"inconclusive: 29.1 µM [falling, single point]",
CCCCCCSc1cccc(-c2nc3cc(C)ccn3c2NC2CCCCC2)c1,"inconclusive: 20.6 µM [falling, single point]",
CCCOC(=O)C1=C(C)NC2=C(C(=O)C(C(=O)OC)C(C)C2)C1c1ccc(N(CC)CC)cc1 (stereo unspecified),"inconclusive: 4.61 µM [activator, single point]",

# At a glance, part of the list above.
SMILES,Potency,"activity change, negative = inhibition"
COc1ccc(S(=O)(=O)N/N=C\c2ccc3c(c2)OCO3)cc1,"inconclusive: 6.51 µM [falling, single point]",
O=C(NCC(=O)N1CCN(S(=O)(=O)c2ccccc2)CC1)c1ccc2ccccc2c1,"inconclusive: 20.6 µM [falling, single point]",
COc1ccc(NS(=O)(=O)c2ccc(Cl)s2)cn1,,inactive: -9.17%
O=C(CSC1=NCCS1)NC(NC(=O)CSC1=NCCS1)c1ccccc1,"inconclusive: 0.58 µM [falling, full curve, poor fit]",
CN(C)c1ccc(C(=S)N2CCN(c3ccc([N+](=O)[O-])cc3)CC2)cc1,"inconclusive: 16.4 µM [falling, partial curve, poor fit]",
CC(=O)N1CCc2c(sc3c2c(=O)n(-c2cccc(Cl)c2C)c(=O)n3Cc2ccccc2C)C1,"inconclusive: 7.31 µM [falling, partial curve, poor fit]",
C/C(=N/NC(=O)c1cccs1)c1cccs1,"inconclusive: 4.61 µM [activator, full curve]",
C(=N\Nc1nc2ccccc2s1)/c1ccccn1,"inconclusive: 2.91 µM [activator, partial curve, poor fit]",
CC(C)CC(=O)N1CCN(Cc2ccc3ccccc3c2)CC1,"inconclusive: 16.4 µM [falling, partial curve, poor fit]",
CCCCc1ccc(NC2=NCC(=O)N2CCc2ccccc2)cc1,"inconclusive: 20.6 µM [falling, single point]",
Cc1ccc(CN(C)C(=O)c2cccc(S(=O)(=O)N3CCc4ccccc43)c2)cc1,,inactive: -3.29%
Cc1ccc(N2CCN(/N=C/c3cccnc3)CC2)cc1,"inconclusive: 0.461 µM [falling, full curve, poor fit]",
Cc1ccccc1C(=O)Nc1cccc(OCc2cc(=O)n3c4c(sc3n2)CCCC4)c1,,inactive: 21.6%
Cc1ccc(C)c(CNS(=O)(=O)c2ccc3c(c2)C(C)(C)C(=O)N3C)c1,"inconclusive: 20.6 µM [activator, partial curve, poor fit]",
COc1ccc2c(c1)c1c(c(=O)n(-c3ccc(C)cc3)c(=O)n1CC(=O)c1ccc(Cl)cc1)n2C,"inconclusive: 1.03 µM [activator, partial curve, poor fit]",
COc1cccc(CNS(=O)(=O)c2ccc3[nH]c4c(c3c2)CCCCC4)c1,"inconclusive: 32.6 µM [falling, single point]",
Cc1ccc(C)c(N2CCN(C(=O)c3ccc(-c4nc(COc5ccccc5)c(C)o4)cc3)CC2)c1,"inconclusive: 6.51 µM [falling, single point]",
CC(C)C[C@@H](CN1CCC[C@@H]1CN1C(=O)C(=O)NC[C@@H]1Cc1ccccc1)N1C[C@H](Cc2ccccc2)N(CC2CCCCCC2)C(=O)C1=O,"inconclusive: 29.1 µM [falling, single point]",
CCCCCCSc1cccc(-c2nc3cc(C)ccn3c2NC2CCCCC2)c1,"inconclusive: 20.6 µM [falling, single point]",
